These are yes or no findings as the source states them, for the method shown. Some entries that bind do so weakly or less than the wild type. Tags and fused reporters may be left off the sequences shown.

The target of this assay is T1, GENOMES UNCOUPLED 1 (GUN1), full-length, fused to the GAL4 DNA binding domain (Arabidopsis thaliana) (UniProt Q9SIC9).
T1 sequence: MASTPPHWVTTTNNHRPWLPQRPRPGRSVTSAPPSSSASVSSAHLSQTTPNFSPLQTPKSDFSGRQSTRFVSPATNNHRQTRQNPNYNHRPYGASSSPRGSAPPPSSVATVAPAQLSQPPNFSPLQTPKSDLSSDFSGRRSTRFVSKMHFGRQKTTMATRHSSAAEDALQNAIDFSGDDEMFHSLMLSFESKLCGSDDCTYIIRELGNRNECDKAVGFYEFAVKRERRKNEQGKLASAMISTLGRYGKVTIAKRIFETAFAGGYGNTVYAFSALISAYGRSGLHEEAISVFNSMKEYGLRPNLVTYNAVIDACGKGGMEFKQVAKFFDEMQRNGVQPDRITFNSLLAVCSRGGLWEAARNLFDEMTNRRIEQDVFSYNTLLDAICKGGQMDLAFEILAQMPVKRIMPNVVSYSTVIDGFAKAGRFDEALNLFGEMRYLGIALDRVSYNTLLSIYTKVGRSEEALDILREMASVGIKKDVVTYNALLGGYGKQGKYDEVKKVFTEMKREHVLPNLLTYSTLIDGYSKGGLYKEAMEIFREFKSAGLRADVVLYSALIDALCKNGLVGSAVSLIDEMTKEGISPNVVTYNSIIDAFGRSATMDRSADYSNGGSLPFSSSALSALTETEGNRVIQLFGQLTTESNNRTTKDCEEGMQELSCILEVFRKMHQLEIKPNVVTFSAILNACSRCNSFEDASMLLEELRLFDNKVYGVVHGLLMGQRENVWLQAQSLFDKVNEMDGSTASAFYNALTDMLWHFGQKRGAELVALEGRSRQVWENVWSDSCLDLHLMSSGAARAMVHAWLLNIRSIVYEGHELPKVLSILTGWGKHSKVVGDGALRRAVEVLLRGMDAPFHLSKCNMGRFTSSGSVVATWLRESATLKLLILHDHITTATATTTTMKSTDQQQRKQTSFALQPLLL
As to the kind of experiment: two-hybrid; pair-wise; full-length GUN1 on the GAL4 BD (pGBKT7) as bait, full-length candidates on the GAL4 AD (pGADT7) as prey; yeast AH109; growth on TDO (SD/-Leu/-Trp/-His) and QDO (SD/-Leu/-Trp/-His/-Ade) with or without X-α-Gal; 5 d at 30 °C.

B1: EML3, full-length, fused to the GAL4 activation domain (protein, UniProt F4K2F0 1-397)
chain: MDYRPSDSSGTDDDLPPSHQGRYQRNARPTGNGRPSVLNSAPLSRVHNEMETQIHLIEQEAYSSILRAFKAQSDAITWEKESLITELRKELRVSDEEHRELLSRVNADEMIRRIREWRKANSLQSSVPQLVHDAPSPAVSGSRKKQKTSQSIASLAMGPPSPSLHPSMQPSSSALRRGGPPPGPKTKKPKTSMQYPSTGIAGRPQAGALTNEPGESGSYDPLVGRKVWTKWPDDNQYYEAVITDYNPVEGRHALVYDINSANETWEWVNLKEISPGDIRWEGEDPGISRKGGHPGQGRGTKTMARGGPASNAGGRGRGSMRMQQPKTQNGIGKKALGEIEILHTETLLKEVEKVFGSVNPNPAEVEKAKRVLRDHELALMDAIAKLEEISDGESGNI
Regarding B1, the binding entry is reported as “binds”.

B2: GGT1, full-length, fused to the GAL4 activation domain (protein, UniProt Q9LR30 1-481)
chain: MALKALDYDTLNENVKKCQYAVRGELYLRASELQKEGKKIIFTNVGNPHALGQKPLTFPRQVVALCQAPFLLDDPNVGMLFPADAIARAKHYLSLTSGGLGAYSDSRGLPGVRKEVAEFIQRRDGYPSDPELIFLTDGASKGVMQILNCVIRGNGDGILVPVPQYPLYSATISLLGGTLVPYYLDESENWGLDVANLRQSVAQARSQGITVRAMVIINPGNPTGQCLSEANIREILKFCYNEKLVLLGDEVYQQNIYQDERPFISSKKVLMEMGSPFSKEVQLVSFHTVSKGYWGECGQRGGYFEMTNLPPRVVEEIYKVASIALSPNVSAQIFMGLMVNPPKPGDISYDQFARESKGILESLRRRARLMTDGFNSCKNVVCNFTEGAMYSFPQIRLPTGALQAAKQAGKVPDVFYCLKLLEATGISTVPGSGFGQKEGVFHLRTTILPAEDEMPEIMDSFKKFNDEFMTQYDNNFGYSKM
Regarding B2, the binding entry is given as “binds”.

B3: STO, full-length, fused to the GAL4 activation domain (protein, UniProt Q96288 1-248)
chain: MKIQCDVCEKAPATVICCADEAALCPQCDIEIHAANKLASKHQRLHLNSLSTKFPRCDICQEKAAFIFCVEDRALLCRDCDESIHVANSRSANHQRFLATGIKVALTSTICSKEIEKNQPEPSNNQQKANQIPAKSTSQQQQQPSSATPLPWAVDDFFHFSDIESTDKKGQLDLGAGELDWFSDMGFFGDQINDKALPAAEVPELSVSHLGHVHSYKPMKSNVSHKKPRFETRYDDDDEEHFIVPDLG
B3: the binding entry is given as “binds”.

B4: BAG7, full-length, fused to the GAL4 activation domain (protein, UniProt Q9LVA0 1-446)
chain: MTLFHRLDLIDPYTCTPLIVRETSIVEPSSLFLGFPSFIDEDIEDLFEFSSPNPLDLFETVTDLVKIKKSPSSCKYKVIRRRLEPEYPLKYLCDRVSDLESKFDRLVSPKSDRKYTLTKEIKGSGERKYKWEAEIQGPLERKYKLEAEIEGSGERKYRWTTEIKGGKKDEEGLKLAALKKEKAKAKAIAAAEAEKKKNKNKKKSYNWTTEVKSERENGEVSHTYIIKATTGGEKKKKHEEKEKKEKIETKSKKKEKTRVVVIEEEEEEDDESSEHGAIVLRKAFSRRNGAVRTKKGKNKEMPPEYAAVMIQRAFKAYLIRRSKSLRALRDLAIAKTKLKELRASFHNFSYRRLIARDGEERQKFSEKIIVLLLTVDAIEGVDVMVRGAKRSMVDELEAMLDVVDPQPQGKSLSMRRRTFDMPDSLIRKEIAEGVTQIVQMLETEEE
With B4, the binding result is listed as “binds”.

B5: KAC1, full-length, fused to the GAL4 activation domain (protein, UniProt Q9LX99 1-1273)
chain: MADQRSKTNRWNWEVSGFEPRKSSSNASFAESTGHRTTGPLLRRNSISTPSLPPKQAIASKVNGLKEKVKLAKEDYLELRQEATDLQEYSNAKLDRVTRYLGVLAEKSRKLDQFVLETEARISPLINEKKRLFNDLLTAKGNIKVFCRARPLFEDEGPSVIEFPGDCTICVNTSDDTLSNPKKDFEFDRVYGPHVGQAALFSDVQPFVQSALDGSNVSILSYGQTNAGKTYTMEGSNHDRGLYARCFEELFDLANSDSTSTSRFSFSLSVFEIYNEQIRDLLSETQSNLPNINMDLHESVIELGQEKVDNPLEFLGVLKSAFLNRGNYKSKFNVTHLIVSIHIYYSNTITGENIYSKLSLVDLAGSEGLIMENDSGDHVTDLLHVMNSISALGDVLSSLTSGKDSIPYDNSILTRVLADSLGGSSKTLMIVNICPSVQTLSETISCLNYAARARNTVPSLGNRDTIKKWRDVASDARKELLEKERENQNLKQEVVGLKKALKDANDQCVLLYSEVQRAWKVSFTLQSDLKSENIMLVDKHRLEKEQNSQLRNQIAQFLQLDQEQKLQMQQQDSAIQNLQAKITDLESQVSEAVRSDTTRTGDALQSQDIFSPIPKAVEGTTDSSSVTKKLEEELKKRDALIERLHEENEKLFDRLTERSMAVSTQVLSPSLRASPNIQPANVNRGEGYSAEAVALPSTPNKNNGAITLVKSGTDLVKTTPAGEYLTAALNDFDPEEYEGLAAIADGANKLLMLVLAAVIKAGASREHEILAEIRDSVFSFIRKMEPRRVMDTMLVSRVRILYIRSLLARSPELQTIRVSPVECFLEKPNTGRSKSTSRGSSPGRSPVRYLDTQIHGFKVNIKAERRNKLASVVSRMRGLEQDAGRQQVTGVKLREMQDEAKSFAIGNKALAALFVHTPAGELQRQIRLWLAENFEFLSVTSDDVSGGNGGQLELLSTAIMDGWMAGLGAAVPPHTDALGQLLSEYAKRVYTSQMQHMKDIAGTLAAEEAEDAGQVSKLRSALESVDHKRRKILQQMKSDAALLNLEEGSSPIPNPSTAAEDSRLASLISLDGILKQVKEITRQASVHVLSKSKKKALLESLDELTERMPSLLDIDHPCAQREIATAHQLVETIPEQEDTNILEQSHDRRPSLESISSGETDVSQWNVLQFNTGSSAPFIIKCGGNNNSELVIKADARVQEPKGGEIVRVVPRPSVLVNMSLEEMKQMFVQLPEALSLLALARTADGTRARYSRLYKTLAMKVPSLKDLVSELE
As for B5, the binding entry is listed as “binds”.

B6: GNAT5, full-length, fused to the GAL4 activation domain (protein, UniProt Q9LR91 1-319)
chain: MAALSISLAFSVDSLKPTQSTKFGFSSSSHRYPLLYSCKSHRSNLRFAFPPSSVSTATETGEENSKSTGNYAFLEESFRTGRFLSNDELEKLKTLEGFAYFQELESGSMWVRVMRHEEMDSTVHLLAESFGESMLLPSGYQSVLRFLIKQYLIERREVLPHAVTLVGFFRKKVDEFSDDGEEEAVMAGTVEVCLEKRGANASPPSPTPPKESPYICNMTVKEDLRRRGIGWHLLKASEELISQISPSKDVYLHCRMVDEAPFNMYKKAGYEVVKTDTVLVLLMLQRRKHLMRKKLLPLCTNPIVEMVGSDNELTSSANV
Regarding B6, the binding result is given as “binds”.

For the origin of these results see article PMC8583188.
